In patent publication KR20230083068A:
Results are given in words; binding and its absence hold for the method and conditions named. Some results given as binding are weak or reduced against the parent protein; the word gives no strength.

Sequences of proteins named here, by UniProt entry; tags and fusion partners are left off.
UniProt P33469: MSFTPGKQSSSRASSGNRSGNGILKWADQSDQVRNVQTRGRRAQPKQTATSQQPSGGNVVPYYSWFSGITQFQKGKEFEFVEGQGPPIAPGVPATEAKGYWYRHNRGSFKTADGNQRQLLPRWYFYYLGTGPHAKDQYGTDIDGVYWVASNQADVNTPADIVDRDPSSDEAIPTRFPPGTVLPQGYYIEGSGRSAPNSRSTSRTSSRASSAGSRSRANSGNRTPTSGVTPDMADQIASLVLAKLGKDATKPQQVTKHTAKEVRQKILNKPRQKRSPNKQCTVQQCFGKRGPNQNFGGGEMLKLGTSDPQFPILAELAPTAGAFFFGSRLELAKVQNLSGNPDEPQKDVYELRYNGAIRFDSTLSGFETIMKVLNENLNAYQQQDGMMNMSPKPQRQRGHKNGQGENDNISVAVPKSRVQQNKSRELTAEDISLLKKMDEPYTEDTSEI

Tests used:
[1] = target: HCoV-OC43 N 단백질 (바이러스 입자 또는 감염된 Vero 세포 용해물의 천연 N 단백질) (HCoV-OC43) (UniProt P33469); experiment: sandwich ELISA, mAb coated on plate, lysed virus particles
[2] = target: HCoV-OC43 N 단백질 (바이러스 입자 또는 감염된 Vero 세포 용해물의 천연 N 단백질) (HCoV-OC43) (UniProt P33469); experiment: western blot of infected Vero cell lysates
[3] = target: HCoV-OC43 N 단백질 (바이러스 입자 또는 감염된 Vero 세포 용해물의 천연 N 단백질) (HCoV-OC43) (UniProt P33469); experiment: western blot of pulled-down complexes and of virus lysate

Measured: binding

B1: 항-HCoV-OC43 N 단백질 특이적 단클론 항체 (클론 1C7D7 mAb) (antibody, V domains shown)
VH: EVKLEQSGGGLVKPGGSLKLSCAASGFSFSSHTMSWVRQTPEKRLEWVATITSGGTYTYYPDSVKGRFTISRDNAKNTLYLQMTSLKSEDTAMYYCTRGQEADGYYVPFAYWGQGTLVTVSA
VL: DIVMTQSPSSLAVSVGEKVTMSCKSSQSLLYSSNQKNYLAWYQQKPGQSPKLLIFWASTRESGVPDRFTGSGSGTDFTLTISSVQAEDLAVYYCKQSYNLRTFGGGTKLEIKR
binds: all assays above
